According to PubChem BioAssay AID485314 (National Center for Advancing Translational Sciences (NCATS), 2010):
The campaign covered roughly 340,000 compounds. About 4,500 (1.3%) were called active. The shares of active, inactive and inconclusive entries below differ from those in the screen. Calls come from the whole dose curve; as a rule, active = well fitted inhibition curve with a large enough effect; inconclusive = small, poorly fitted or top-dose-only effect, or another doubt; inactive = no such curve, though single readings can be large or run the other way. A potency beside an inconclusive call is a rough fit, not a confirmed value.

Target: DNA polymerase beta (Homo sapiens) (UniProt P06746)
Experiment: qHTS Assay for Inhibitors of DNA Polymerase Beta
Details: Pol beta primer extension/strand displacement, fluorescence kinetic; activity change, negative = inhibition: at 114 µM (top of the series)
Summary of the method: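 Pol beta (10 nM) was preincubated with compound for 15 min at room temperature. The reaction was then started with 50 nM substrate and read immediately and after a further 10 min at room temperature.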
% is set by controls: 0 for no effect and ±100 for the full control effect; potency is the fitted concentration of half-maximal effect.

Row | Structure (SMILES) | Potency | activity change, negative = inhibition
1 | Cc1c(N=Nc2c(O)n(-c3ccc(Br)cc3)c(=O)[nH]c2=O)c(=O)n(-c2ccccc2)n1C | inconclusive: 79.4 µM [inhibitor, single point] | 
2 | CN(C)P1(N(C)C)=NC(C(F)(F)F)=NC(C(F)(F)F)=N1 | inconclusive: 89.1 µM [inhibitor, single point] | 
3 | Cc1cc(SCC(=O)N/N=C/c2ccco2)nc2ccccc12 | inconclusive: 5.01 µM [inhibitor, full curve] | 
4 | Cc1cc(OCC(=O)NCc2cccnc2)c2c3c(c(=O)oc2c1)CCCC3 |  | inconclusive: -31.3% [inhibitor]
5 | CCN1C(=O)C(=Cc2c(C)n(CC(=O)NCC3CCCO3)c3ccccc23)C(=O)N(CC)C1=S (centres undefined) | inconclusive: 28.2 µM [inhibitor, full curve, poor fit] | 
6 | COc1ccc(CC2C(=O)N(C)C(=O)N(C)C2=O)c(OC)c1 |  | inactive: -14%
7 | COc1ccc(-c2nn(CCC#N)cc2C(=O)Nc2cccc([N+](=O)[O-])c2)cc1OC |  | inactive: 8.16%
8 | CCc1ccc(N2C(=O)NC(=O)/C(=C\C=C\c3ccco3)C2=O)cc1 |  | inconclusive: -161% [inhibitor]
9 | C=CCOc1ccc(CC2C(=O)N(C)C(=O)N(C)C2=O)cc1 | inconclusive: 10 µM [inhibitor, full curve] | 
10 | CCOCCCNC(=O)c1c[nH]c2ccc(S(=O)(=O)N(C)c3ccc(Cl)cc3F)cc2c1=O | inconclusive: 15.8 µM [inhibitor, full curve] | 
11 | COc1ccc(OC)c(NC(=O)Cn2cc(C(=O)c3ccccc3)c3ccccc32)c1 |  | inactive: 0.666%
12 | CCN1CCN(c2nc3c(c(=O)[nH]2)CCC3)CC1 |  | inactive: 40.3%
13 | Cc1ccc(N2C(=O)/C(=C/c3ccc(CN(CCC#N)S(C)(=O)=O)o3)C(=O)NC2=S)cc1 | active: 6.31 µM | 
14 | COc1ccc(CN(C)S(=O)(=O)c2nnc(NC(=O)c3ccccc3Br)s2)cc1 | inconclusive: 0.141 µM [inhibitor, full curve, poor fit] | 
15 | Cc1nc2sc3c(c2c(=O)n1NC(=O)CCl)CCCC3 | inconclusive: 2.82 µM [inhibitor, full curve] | 
16 | COc1cccc(-c2nc3ccc(N4CCN(C)CC4)cc3[nH]2)c1 | inconclusive: 39.8 µM [inhibitor, single point] | 
17 | O=C(O)c1ccccc1SSc1ccccc1C(=O)O | inconclusive: 89.1 µM [inhibitor, single point] | 
18 | CCOP(=O)(OCC)C(O)c1ccccc1 (centres undefined) | inconclusive: 79.4 µM [inhibitor, single point] | 
19 | O=C(c1cccc2ccccc12)C1CCCN(C2CCC2)C1 (centres undefined) |  | inactive: -9.88%
20 | NC(=O)Nc1ccc(C(=O)OCC(=O)Nc2ccc(Cl)cc2C(=O)c2ccccc2)cc1 | inconclusive: 89.1 µM [inhibitor, single point] | 
21 | Cc1nonc1OCCNc1ccc([N+](=O)[O-])c2cccnc12 | inconclusive: 5.01 µM [inhibitor, single point] | 
22 | Cc1onc(-c2ccccc2Cl)c1C(=O)NCc1ccc2c(c1)cc(C)n2C | inconclusive: 3.98 µM [inhibitor, full curve] | 
23 | O=c1[nH]c(=S)n(C2CC2)c(O)c1C=NCc1ccc(F)cc1 |  | inconclusive: -106% [inhibitor]

Row | Structure (SMILES) | Potency | activity change, negative = inhibition
24 | Cc1cccn2c(=O)c(/C=C(\C#N)c3nc4ccccc4s3)c(Oc3ccc(F)cc3)nc12 | inconclusive: 5.01 µM [inhibitor, full curve] | 
25 | C=CCc1cc(C=C2C(=O)NC(=O)NC2=O)cc(OC)c1OCc1ccc(C(=O)O)cc1 | inconclusive: 20 µM [inhibitor, partial curve] | 
26 | CCOc1ccc(N2C(=O)NC(=O)/C(=C/c3cnc(SC)nc3)C2=O)cc1 |  | inactive: 28.8%
27 | O=C(c1ccc2c(c1)N(Cc1cccc(F)c1)C(=O)c1ccccc1S2)N1CCC2(CC1)OCCO2 | active: 22.4 µM | 
28 | COc1ccc(NC(=O)N2CCC3(CC2)OCCO3)c(OC)c1 | inconclusive: 89.1 µM [inhibitor, single point] | 
29 | COc1ccccc1N1CCN(Cc2cccc(Br)c2)CC1 | inconclusive: 89.1 µM [inhibitor, single point] | 
30 | N#CC(C#N)=Cc1ccc(C=C(C#N)C#N)cc1 | inconclusive: 56.2 µM [inhibitor, single point] | 
31 | O=C1NC(=S)N(c2ccc(F)cc2)C(=O)/C1=C/c1ccco1 | active: 0.562 µM | 
32 | Cc1cc(C=C2C(=O)NC(=S)NC2=O)c(C)n1-c1ccc2c(c1)OCO2 | active: 89.1 µM | 
33 | Cc1ccnc(NS(=O)(=O)c2ccc(N=Cc3c(O)n(C)c(=O)n(C)c3=O)cc2)n1 | inconclusive: 89.1 µM [inhibitor, single point] | 
34 | C=CCN1C(=O)NC(=O)/C(=C\c2ccc(-c3ccccc3[N+](=O)[O-])o2)C1=O | inconclusive: 0.891 µM [inhibitor, full curve, poor fit] | 
35 | O=c1[nH]c(=O)n(CCC2=CCCCC2)c(O)c1/C=N/Nc1ccccc1 |  | inactive: 1.72%
36 | O=C1C(=O)c2ccccc2-c2ccccc21 | inconclusive: 15.8 µM [inhibitor, partial curve] | 
37 | C=CCn1c(O)c(C=NCCCn2ccnc2)c(=O)[nH]c1=O | active: 0.316 µM | 
38 | CN1C(=O)C(=Cc2cn(CC#N)c3ccccc23)C(=O)N(C)C1=O | inconclusive: 89.1 µM [inhibitor, single point] | 
39 | C=C1C(=O)O[C@@H]2C[C@@H](C)[C@@H]3C=CC(=O)[C@@]3(C)[C@@H](OC(=O)CC(=O)O[C@H]3[C@@H]4C(=C)C(=O)O[C@@H]4C[C@@H](C)[C@@H]4C=CC(=O)[C@]43C)[C@H]12 | active: 20 µM | 
40 | Fc1ccccc1-c1n[nH]c(=S)n1Cc1ccccc1 | inconclusive: 89.1 µM [inhibitor, single point] | 
41 | COc1ccc(C2SCC(=O)Nc3c2c(=O)[nH]n3C2CCCCCC2)cc1 (centres undefined) | inconclusive: 0.1 µM [inhibitor, full curve, poor fit] | 
42 | NC(N)=N/N=C/c1ccc(N(c2ccccc2)c2ccccc2)cc1 | inconclusive: 70.8 µM [inhibitor, single point] | 
43 | Cc1ccc(S(=O)(=O)Oc2ccccc2C=C2C(=O)N(C)C(=O)N(C)C2=O)cc1 |  | inactive: -12.8%
44 | Cc1cccc(NC(=O)Cn2cc(C(=O)C3CC3)c3ccccc32)c1C | inconclusive: 50.1 µM [inhibitor, partial curve] | 
45 | Cc1nn(Cc2ccccc2)c(C)c1C(=O)NCc1ccccc1 | inconclusive: 89.1 µM [inhibitor, single point] | 
46 | Cc1ccc2c(c1)C1CN(C)CCC1N2C(=O)c1ccccc1NS(=O)(=O)c1cccc(C(F)(F)F)c1 (centres undefined) | inconclusive: 89.1 µM [inhibitor, single point] | 

Row | Structure (SMILES) | Potency | activity change, negative = inhibition
47 | CNc1cc(N2CCNCC2)ccc1[N+](=O)[O-] | inconclusive: 0.355 µM [inhibitor, full curve, poor fit] | 
48 | Cc1nc2c(=O)n(C)c(=O)nc-2n(C)n1 | inconclusive: 0.562 µM [inhibitor, full curve, poor fit] | 
49 | O=Cc1cn(Cc2ccc(Br)cc2)c2ccccc12 |  | inactive: 4.36%
50 | O=C(c1ccc(CS(=O)(=O)c2ccccc2)o1)N1CCC2(CC1)OCCO2 | inconclusive: 5.62 µM [inhibitor, full curve] | 
51 | O=C1NC(=S)NC(=O)C1=Cc1cccn1-c1ccc(O)cc1 | active: 25.1 µM | 
52 | Cc1c(C=C2C(=O)NC(=O)NC2=O)c(=O)n(-c2ccccc2)n1C |  | inactive: -13.2%
53 | CN(C)C1C(=O)C(C(N)=O)=C(O)C2(O)C(=O)C3=C(O)c4c(O)cccc4C(C)(O)C3C(O)C12 (centres undefined) | active: 11.2 µM | 
54 | COc1ccc2c(c1)/C(=C/c1cnc[nH]1)C(=O)N2 | inconclusive: 89.1 µM [inhibitor, single point] | 
55 | CC(=O)c1cn(Cc2ccc(F)cc2)c2ccccc12 | inconclusive: 100 µM [inhibitor, single point] | 
56 | Cc1cc(C)nc(N2Cc3ccccc3C2=N)n1 | inconclusive: 15.8 µM [inhibitor, full curve] | 
57 | CCCCn1c(O)c(/C=N/NC(=O)c2ccncc2)c(=O)[nH]c1=S | inconclusive: 39.8 µM [inhibitor, partial curve] | 
58 | CCCN(CCC)CCc1ccc(O)c(O)c1 |  | inactive: 3.56% [at 57.1 µM]
59 | CN(CCOc1ccc(C=C2C(=O)NC(=O)NC2=O)cc1)c1ccccn1 |  | inactive: 16.4%
60 | Cc1ccc(NC(=S)NC2CC3CCC(C2)N3Cc2ccco2)cc1C (centres undefined) | inconclusive: 1.58 µM [inhibitor, full curve, poor fit] | 
61 | Nc1c(C(=O)NCc2ccco2)c2nc3ccccc3nc2n1Cc1ccc(F)cc1 |  | inactive: -16.5%
62 | Cc1ccccc1C(=O)Nc1cc(-c2ccc(Cl)cc2)nn1-c1ccccc1 | inconclusive: 7.94 µM [inhibitor, full curve, poor fit] | 
63 | CCCCn1c(N)c(C(=O)NCc2cccs2)c2nc3ccccc3nc21 |  | inactive: -9.11%
64 | O=c1[nH]c(=S)n(-c2ccccc2)c(O)c1/C=N/N1CCCCC1c1cccnc1 (centres undefined) |  | inconclusive: -45.4% [inhibitor]
65 | O=C1NC(=O)N(CCc2ccc(F)cc2)C(=O)/C1=C/c1cccs1 | inconclusive: 44.7 µM [inhibitor, partial curve, poor fit] | 
66 | O=C1NC(=O)C(=Cc2ccccc2OCCOc2ccc([N+](=O)[O-])cc2)C(=O)N1 |  | inactive: 21.2%
67 | O=C(c1ccc(C(F)(F)F)cc1)C1CCCN(Cc2ccncc2)C1 (centres undefined) | inconclusive: 28.2 µM [inhibitor, single point] | 
68 | COc1ccc(/C=C2/C(=O)N(Cc3ccco3)C(=O)N(C(C)C)C2=O)cc1 | active: 20 µM | 
69 | CC(C)c1ccc(N2C(=O)CC(=O)NC2=O)cc1 |  | inactive: 37.8%

Some values from the list.
For Potency, `O=C(c1ccc(CS(=O)(=O)c2ccccc2)o1)N1CCC2(CC1)OCCO2` shows inconclusive: 5.62 µM [inhibitor, full curve]
For Potency, `COc1ccc(/C=C2/C(=O)N(Cc3ccco3)C(=O)N(C(C)C)C2=O)cc1` shows active: 20 µM
For Potency, `CCCCn1c(O)c(/C=N/NC(=O)c2ccncc2)c(=O)[nH]c1=S` shows inconclusive: 39.8 µM [inhibitor, partial curve]
For activity change, negative = inhibition, `CC(C)c1ccc(N2C(=O)CC(=O)NC2=O)cc1` shows inactive: 37.8%
For Potency, `COc1ccc2c(c1)/C(=C/c1cnc[nH]1)C(=O)N2` shows inconclusive: 89.1 µM [inhibitor, single point]
